The data set is described as follows: self-splicing fitness, log relative to wild type (ln ratio); higher = more splicing; Tetrahymena group I intron in knt gene, E. coli kanamycin selection, DiMSum; sequences stand for … in CUCUCU…GGAGGGAAAAGUUAUCAGGCAUGCACCUGGUAGCUAGUCUUUAAACCAAUAGAUUGCAUCGGUUUAAAAGGCAAGACCGUCAAAUUGCGGGAAAGGGGUCAACAGCCGUUCAGUACCAAGUCUCAGGGGAAACUUUGAGAUGGCCUUGCAAAGGGUAUGGUAAUAAGCUGACGGACAUGGUCCUAACCACGCAGCCAAGUCCUAAGUCAACAGAUCUUCUGUUGAUAUGGAUGCAGUUCACAGACUAAAUGUCGGUCGGGGAAGAUGUAUUCUUCUCAUAAGAUAUAGUCGGACCUCUCCUUAAUGGGAGCUAGCGGAUGAAGUGAUGCAACACUGGAGCCGCUGGGAACUAAUUUGUAUGCGAAAGUAUAUUGAUUAGUUUUGGAGUACUCGUGGUCG
Put shortly: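 The eight P1ex-region nucleotides of an intron in the knt kanamycin-resistance gene on pET-22b(+) were all randomised and the library put into E. coli BL21(DE3). Six replicate transformations were grown overnight at 37°C or 30°C on LB agar with or without 25 μg/mL kanamycin, together with 100 μg/mL carbenicillin, 50 μM IPTG and 0.2% rhamnose. Colonies were pooled and amplicon-sequenced on an Illumina HiSeq 2500. Fitness from DiMSum is the error-weighted combination of wild-type-normalised replicate fold changes, kanamycin over none.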

± gives the uncertainty stated by the source. Many entries were measured with a wide error.

In the case of CAUGAGCAAUAUUACGGUCG, the “self-splicing fitness (ln)” value is, setting by setting: (30 °C) -0.34 ± 0.091; (37 °C) 0.0674 ± 0.1.

In the case of CUCGAGCAAUAUUACGUAGC, the “self-splicing fitness (ln)” value (30 °C) was -4.8 ± 0.72 and the “self-splicing fitness (ln)” value (37 °C) was -2.19 ± 0.27. Regarding UCGCAGCAAUAUUACGCCUC, the “self-splicing fitness (ln)” value (30 °C) is -5.02 ± 0.72. As for AAGGAGCAAUAUUACGAACC, the “self-splicing fitness (ln)” value reads like this: (30 °C) -2.65 ± 1.1; (37 °C) 1.27 ± 0.77.

Take UACUAGCAAUAUUACGACCC: the “self-splicing fitness (ln)” value (30 °C) is -1.97 ± 1.2. Same read-out and setting: next, UGAGAGCAAUAUUACGGUAC: -3.4 ± 1.1; UCUUAGCAAUAUUACGGAAG: -2.59 ± 0.56. CUGGAGCAAUAUUACGGUCA: for the setting “37 °C”, the “self-splicing fitness (ln)” value was -3.17 ± 0.52. Turning to CUCCAGCAAUAUUACGACGC, the “self-splicing fitness (ln)” value is, setting by setting: (30 °C) -3.37 ± 0.52; (37 °C) -3 ± 0.61.

For GUCUAGCAAUAUUACGGCCG, where the note is “30 °C”, the “self-splicing fitness (ln)” value was -3.77 ± 1.

As to CUGGAGCAAUAUUACGCAUU, the “self-splicing fitness (ln)” value (37 °C) is -2.03 ± 1.1.

On to GUGGAGCAAUAUUACGCUGU, for which the “self-splicing fitness (ln)” value reads like this: (30 °C) -3.19 ± 0.82; (37 °C) -4.56 ± 0.59. On to GUGUAGCAAUAUUACGAGAG, for which, for the setting “30 °C”, the “self-splicing fitness (ln)” value was -4.62 ± 1.

Regarding AGUUAGCAAUAUUACGCCAC, where the note is “37 °C”, the “self-splicing fitness (ln)” value was -2.52 ± 1.1. Take CGACAGCAAUAUUACGCAGA: the “self-splicing fitness (ln)” value reads like this: (30 °C) -2.61 ± 0.1; (37 °C) -2.06 ± 0.1. On to UCUUAGCAAUAUUACGUACC, for which the “self-splicing fitness (ln)” value reads like this: (30 °C) -1.26 ± 0.48; (37 °C) -1.53 ± 0.41. UGUUAGCAAUAUUACGCGGU: for the setting “37 °C”, the “self-splicing fitness (ln)” value is -2.85 ± 0.61. On to GGCCAGCAAUAUUACGCCAA, for which the “self-splicing fitness (ln)” value was -1.22 ± 0.65 (30 °C) and -2.77 ± 1.1 (37 °C). Take UCUGAGCAAUAUUACGUCCG: the “self-splicing fitness (ln)” value (37 °C) is -2.06 ± 0.5. In the case of GCAGAGCAAUAUUACGCGUU, the “self-splicing fitness (ln)” value (30 °C) is -1.48 ± 0.11 and the “self-splicing fitness (ln)” value (37 °C) was -2.09 ± 0.16. Take GGGGAGCAAUAUUACGGGAA: under “30 °C”, the “self-splicing fitness (ln)” value is -3.07 ± 1.1. As for CCUCAGCAAUAUUACGCUAC, where the note is “37 °C”, the “self-splicing fitness (ln)” value is -2.11 ± 0.5.

In the case of UCUCAGCAAUAUUACGCACC, under “37 °C”, the “self-splicing fitness (ln)” value is -2.34 ± 0.5. With GCGAAGCAAUAUUACGGCCA, the “self-splicing fitness (ln)” value runs as follows: (30 °C) -0.992 ± 0.092; (37 °C) -0.821 ± 0.1. For the sequence UCGAAGCAAUAUUACGAAUC, the “self-splicing fitness (ln)” value was -2.42 ± 1.2 (30 °C) and -2.16 ± 0.64 (37 °C).

Regarding CGAGAGCAAUAUUACGUUGU, the “self-splicing fitness (ln)” value (30 °C) is -4.63 ± 0.59. Still for that read-out and setting: next, UCGUAGCAAUAUUACGGGCU: -3.31 ± 1. For the sequence CUCGAGCAAUAUUACGACGC, where the note is “37 °C”, the “self-splicing fitness (ln)” value is -3.23 ± 1. As to UGUAAGCAAUAUUACGACAC, the “self-splicing fitness (ln)” value (37 °C) is -2.04 ± 0.56. As to GGGGAGCAAUAUUACGAGAC, the “self-splicing fitness (ln)” value (37 °C) was -1.5 ± 0.52.

For the sequence CUUGAGCAAUAUUACGCCGA, the “self-splicing fitness (ln)” value (30 °C) was -4.15 ± 0.73.

For UCCGAGCAAUAUUACGCACG, the “self-splicing fitness (ln)” value (37 °C) is -3.3 ± 1. For the sequence CUAGAGCAAUAUUACGUCAC, the “self-splicing fitness (ln)” value is, setting by setting: (30 °C) -3.34 ± 0.36; (37 °C) -1.72 ± 0.29. Turning to GCCGAGCAAUAUUACGCCAG, where the note is “30 °C”, the “self-splicing fitness (ln)” value was -2.83 ± 0.51. Regarding CUGAAGCAAUAUUACGGACC, the “self-splicing fitness (ln)” value (30 °C) is -4.49 ± 1. Take CCUGAGCAAUAUUACGUAUU: the “self-splicing fitness (ln)” value reads like this: (30 °C) -2.38 ± 0.16; (37 °C) -2.98 ± 0.21. Taken in the same sequence, the figures for CGGAAGCAAUAUUACGCCGA were -1.97 ± 0.82 and -1.52 ± 0.56. Turning to GCUGAGCAAUAUUACGAGAA, the “self-splicing fitness (ln)” value (30 °C) was -1.8 ± 0.55 and the “self-splicing fitness (ln)” value (37 °C) was -2.18 ± 0.56.

Regarding UCCUAGCAAUAUUACGCUUU, the “self-splicing fitness (ln)” value (30 °C) is -4.44 ± 0.72.

For AGCGAGCAAUAUUACGGUAG, where the note is “30 °C”, the “self-splicing fitness (ln)” value is -4.58 ± 0.51. Still for that read-out and setting: next, GAGUAGCAAUAUUACGAGGC: -2.62 ± 1.1. Still for that read-out and setting: with CUAGAGCAAUAUUACGCCGA the figure was -2.81 ± 0.63; with CUGCAGCAAUAUUACGUCUC, -4.43 ± 0.51. As for UAGGAGCAAUAUUACGGAAU, the “self-splicing fitness (ln)” value (30 °C) was -4.06 ± 0.36 and the “self-splicing fitness (ln)” value (37 °C) was -2.51 ± 0.33.

Consider AUAUAGCAAUAUUACGUUCC, for which, where the note is “37 °C”, the “self-splicing fitness (ln)” value was -1.96 ± 0.51. Same read-out and setting: next, CCUAAGCAAUAUUACGAACC: 0.406 ± 1.2. GUCUAGCAAUAUUACGCAGA: the “self-splicing fitness (ln)” value (30 °C) is -4.03 ± 0.52. Take UCACAGCAAUAUUACGACUU: the “self-splicing fitness (ln)” value runs as follows: (30 °C) -3.28 ± 0.2; (37 °C) -1.65 ± 0.12.

On to CGUGAGCAAUAUUACGAUUA, for which the “self-splicing fitness (ln)” value (30 °C) is -2.84 ± 0.56. On the same count and under the same terms, next, CUGCAGCAAUAUUACGAAAA: -4.13 ± 1.

Values taken from the supplement of paper PMC7877785.
